The list is a part of this screen's results and no random one: it gathers tests that were run many times, whatever their T/C, doses with no T/C, and many T/C values between a quarter and a half above the control. Other doses and runs of a compound stand elsewhere. T/C: endpoint of the treated group in % of that of the vehicle group. Some T/C values are followed by the survivors on the day toxicity was checked, most often the fifth; where none is given, no animal had died by that day. Schedule codes are those of the source, taken here to give the interval after Q, in days (D) or hours (H), and the number of doses after X. Some doses have a count of surviving animals in place of a T/C: the source files T/C as zero there, which appears to mark a toxic dose or a test without result, not a measured value. Some doses without a T/C left all or most animals alive at the check, yet need not have been tolerated: the source hardly ever lists a survival T/C far under the control, and the zero likely stands for such cases as well. Survivors were counted at the toxicity check, usually on the fifth day, unless a day is given; later deaths do not show. Some structures stand for samples that the source files as different forms (salt, stereo form or complex); doses refer to the form tested. Some doses were run more than once; the results are listed from low to high. For survival time, the PubChem record calls one and a half times the control and up active, and a quarter to a half above the control has no call in these data; cut-offs in other NCI protocols can differ.

This experiment relates to Lewis lung carcinoma i.m., BDF1 mice, T/C %. The experiment is described as follows: NCI In Vivo Anticancer Drug Screen. Data for tumor model Lewis Lung Carcinoma (intramuscular) in B6D2F1 (BDF1) mice. The essentials: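 Mice carrying transplantable tumours received test compound. Survival or tumour size was recorded and expressed as the treated-group value (T) divided by the vehicle-treated control-group value (C).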

[1] abbreviates: T/C endpoint: mean tumor weight, dose: 100.0 mg/kg/injection, schedule: Q01DX011 (ip), vehicle: other, higher T/C = larger tumour.
Where [2] appears, read: T/C endpoint: median survival time, dose: 6.25 mg/kg/injection, schedule: Q01DX011 (ip), vehicle: other, higher T/C = longer survival.
Where [3] appears, read: T/C endpoint: median survival time, dose: 25.0 mg/kg/injection, schedule: Q01DX011 (ip), vehicle: other, higher T/C = longer survival.
Setting [4] is: T/C endpoint: median survival time, dose: 50.0 mg/kg/injection, schedule: Q01DX011 (ip), vehicle: other, higher T/C = longer survival.
The mark [5] stands for this setting: T/C endpoint: median survival time, dose: 100.0 mg/kg/injection, schedule: Q01DX011 (ip), vehicle: other, higher T/C = longer survival.
Where [6] appears, read: T/C endpoint: median survival time, dose: 200.0 mg/kg/injection, schedule: Q01DX011 (ip), vehicle: other, higher T/C = longer survival.
[7] abbreviates: T/C endpoint: median survival time, dose: 40.0 mg/kg/injection, schedule: Q01DX011 (ip), vehicle: saline, higher T/C = longer survival.
Where [8] appears, read: T/C endpoint: median survival time, dose: 80.0 mg/kg/injection, schedule: Q01DX011 (ip), vehicle: saline, higher T/C = longer survival.

In the case of `Clc1ncnc2nc[nH]c12`, the T/C runs as follows: (T/C endpoint: mean tumor weight (est.), dose: 3.13 mg/kg/injection, schedule: Q01DX011 (ip), vehicle: other, evaluated on day 12, higher T/C = larger tumour) 127 % of control [7 of 8 alive]; under setting [2], 143 % of control. Besides, the survivor count (T/C endpoint: mean tumor weight, dose: 25.0 mg/kg/injection, schedule: Q01DX011 (ip), vehicle: other, higher T/C = larger tumour) is 4 of 8; the survivor count (T/C endpoint: mean tumor weight, dose: 50.0 mg/kg/injection, schedule: Q01DX011 (ip), vehicle: other, higher T/C = larger tumour) is 5 of 8; the survivor count under setting [1] was 2 of 8; the survivor count (T/C endpoint: mean tumor weight, dose: 200.0 mg/kg/injection, schedule: Q01DX011 (ip), vehicle: other, higher T/C = larger tumour) is 2 of 8; the survivor count under setting [2] is recorded as 6 of 8; the survivor count under setting [3] is 4 of 8 and 6 of 8. The survivor count runs as follows: under setting [4], 5 of 8; under setting [5], 2 of 8; under setting [6], 2 of 8; (T/C endpoint: median survival time, dose: 400.0 mg/kg/injection, schedule: Q01DX011 (ip), vehicle: other, higher T/C = longer survival) 0 of 8.
As to `O=C(Nc1ccc(C2=NCCN2)cc1)c1ccc(C(=O)Nc2ccc(C3=NCCN3)cc2)c(Cl)c1`, the survivor count reads like this: (T/C endpoint: median survival time, dose: 8.0 mg/kg/injection, schedule: Q01DX011 (ip), vehicle: water, higher T/C = longer survival) 8 of 8; (T/C endpoint: median survival time, dose: 16.0 mg/kg/injection, schedule: Q01DX011 (ip), vehicle: water, higher T/C = longer survival) 4 of 8; (T/C endpoint: median survival time, dose: 32.0 mg/kg/injection, schedule: Q01DX011 (ip), vehicle: water, higher T/C = longer survival) 3 of 8; (T/C endpoint: median survival time, dose: 64.0 mg/kg/injection, schedule: Q01DX011 (ip), vehicle: water, higher T/C = longer survival) 0 of 8.
As for `Nc1nc2c(c(=O)[nH]1)NC(CCNc1ccc(C(=O)NC(CCC(=O)O)C(=O)O)cc1)CN2` (stereo not given), the survivor count is, setting by setting: (T/C endpoint: mean tumor weight (est.), dose: 200.0 mg/kg/injection, schedule: Q01DX011 (ip), vehicle: other, higher T/C = larger tumour) 3 of 8; (T/C endpoint: mean tumor weight, dose: 12.5 mg/kg/injection, schedule: Q01DX011 (ip), vehicle: other, higher T/C = larger tumour) 5 of 8; (T/C endpoint: median survival time, dose: 3.13 mg/kg/injection, schedule: Q01DX011 (ip), vehicle: other, higher T/C = longer survival) 7 of 8; (T/C endpoint: median survival time, dose: 12.5 mg/kg/injection, schedule: Q01DX011 (ip), vehicle: other, higher T/C = longer survival) 5 of 8; under setting [4], 7 of 8; under setting [5], 6 of 8. The survivor count under setting [6] is given as 3 of 8. The T/C runs as follows: under setting [2], 129 % of control [6 of 8 alive]; under setting [3], 140 % of control [7 of 8 alive]; under setting [4], 132 % of control [7 of 8 alive].
On to `COc1cc(C[C@H]2c3cc(OC)c(OC)cc3CCN2C)c(Oc2cc3c(cc2OC)-c2c(OC)c(OC)cc4c2[C@H](C3)N(C)CC4)cc1OC`, for which the survivor count runs as follows: under setting [1], 3 of 10; under setting [5], 3 of 10; under setting [6], 0 of 10.
Regarding `CCCCCCCCCCCC[N+](C)(C)C` (tested in a mixture with another compound), the survivor count runs as follows: (T/C endpoint: median survival time, dose: 12.5 mg/kg/injection, schedule: Q01DX011 (ip), vehicle: saline, higher T/C = longer survival) 0 of 8; (T/C endpoint: median survival time, dose: 25.0 mg/kg/injection, schedule: Q01DX011 (ip), vehicle: saline, higher T/C = longer survival) 0 of 8; (T/C endpoint: median survival time, dose: 50.0 mg/kg/injection, schedule: Q01DX011 (ip), vehicle: saline, higher T/C = longer survival) 0 of 8.
As for `O=c1cnn(C2OC(CO)C(O)C2O)c(=O)[nH]1` (stereo not given), the T/C (T/C endpoint: median survival time, dose: 75.0 mg/kg/injection, schedule: Q01DX009 (ip), vehicle: Klucel (hydroxypropylcellulose) (HPC), higher T/C = longer survival) is 133 % of control; the T/C (T/C endpoint: median survival time, dose: 150.0 mg/kg/injection, schedule: Q01DX009 (ip), vehicle: Klucel (hydroxypropylcellulose) (HPC), higher T/C = longer survival) is 127 % of control; the T/C (T/C endpoint: median survival time, dose: 300.0 mg/kg/injection, schedule: Q01DX009 (ip), vehicle: Klucel (hydroxypropylcellulose) (HPC), higher T/C = longer survival) is 137 % of control; the T/C (T/C endpoint: median survival time, dose: 600.0 mg/kg/injection, schedule: Q01DX009 (ip), vehicle: Klucel (hydroxypropylcellulose) (HPC), higher T/C = longer survival) was 134 % of control. Also, the survivor count (T/C endpoint: median survival time, dose: 1200.0 mg/kg/injection, schedule: Q01DX009 (ip), vehicle: Klucel (hydroxypropylcellulose) (HPC), higher T/C = longer survival) is given as 9 of 10.
Consider `CC1CC(C)(O)CC(C(O)CC2CC(=O)NC(=O)C2)C1=O` (stereo not given), for which the survivor count (T/C endpoint: mean tumor weight, dose: 0.2 mg/kg/injection, schedule: Q01DX011 (ip), vehicle: saline, higher T/C = larger tumour) is given as 4 of 8; the survivor count (T/C endpoint: mean tumor weight, dose: 0.4 mg/kg/injection, schedule: Q01DX011 (ip), vehicle: saline, higher T/C = larger tumour) was 2 of 8; the survivor count (T/C endpoint: median survival time, dose: 0.2 mg/kg/injection, schedule: Q01DX011 (ip), vehicle: saline, higher T/C = longer survival) is recorded as 4 of 8; the survivor count (T/C endpoint: median survival time, dose: 0.4 mg/kg/injection, schedule: Q01DX011 (ip), vehicle: saline, higher T/C = longer survival) was 2 of 8; the survivor count (T/C endpoint: median survival time, dose: 0.8 mg/kg/injection, schedule: Q01DX011 (ip), vehicle: saline, higher T/C = longer survival) is given as 0 of 8.
On to `O=C1C(=O)c2ccccc2C(O)=C1CC=C(Cl)Cl`, for which the survivor count by setting is: (T/C endpoint: mean tumor weight (est.), dose: 100.0 mg/kg/injection, schedule: Q01DX011 (ip), vehicle: saline with Tween-80, higher T/C = larger tumour) 3 of 8; (T/C endpoint: mean tumor weight, dose: 15.0 mg/kg/injection, schedule: Q01DX011 (oral), vehicle: saline, higher T/C = larger tumour) 5 of 8; (T/C endpoint: mean tumor weight, dose: 30.0 mg/kg/injection, schedule: Q01DX011 (oral), vehicle: saline, higher T/C = larger tumour) 5 of 8; (T/C endpoint: mean tumor weight, dose: 40.0 mg/kg/injection, schedule: Q01DX011 (oral), vehicle: saline, higher T/C = larger tumour) 4 of 8; (T/C endpoint: mean tumor weight, dose: 60.0 mg/kg/injection, schedule: Q01DX011 (ip), vehicle: saline, higher T/C = larger tumour) 3 of 8; (T/C endpoint: mean tumor weight, dose: 80.0 mg/kg/injection, schedule: Q01DX011 (oral), vehicle: saline, higher T/C = larger tumour) 1 of 8. Further, the survivor count is on record as 4 of 8 under setting [1]; 5 of 8 (T/C endpoint: median survival time, dose: 15.0 mg/kg/injection, schedule: Q01DX011 (oral), vehicle: saline, higher T/C = longer survival); 5 of 8 (T/C endpoint: median survival time, dose: 30.0 mg/kg/injection, schedule: Q01DX011 (oral), vehicle: saline, higher T/C = longer survival); 8 of 8 under setting [7]; 4 of 8 (T/C endpoint: median survival time, dose: 40.0 mg/kg/injection, schedule: Q01DX011 (oral), vehicle: saline, higher T/C = longer survival); 6 of 8 (T/C endpoint: median survival time, dose: 50.0 mg/kg/injection, schedule: Q01DX011 (ip), vehicle: saline with Tween-80, higher T/C = longer survival). For the same compound, the survivor count was 3 of 8 (T/C endpoint: median survival time, dose: 60.0 mg/kg/injection, schedule: Q01DX011 (ip), vehicle: saline, higher T/C = longer survival); 0 of 8 under setting [8]; 1 of 8 (T/C endpoint: median survival time, dose: 80.0 mg/kg/injection, schedule: Q01DX011 (oral), vehicle: saline, higher T/C = longer survival); 3 of 8 (T/C endpoint: median survival time, dose: 100.0 mg/kg/injection, schedule: Q01DX011 (ip), vehicle: saline with Tween-80, higher T/C = longer survival); 0 of 8 (T/C endpoint: median survival time, dose: 160.0 mg/kg/injection, schedule: Q01DX011 (oral), vehicle: saline, higher T/C = longer survival); 0 of 8 (T/C endpoint: median survival time, dose: 320.0 mg/kg/injection, schedule: Q01DX011 (oral), vehicle: saline, higher T/C = longer survival). Where the note is “T/C endpoint: median survival time, dose: 10.0 mg/kg/injection, schedule: Q01DX011 (ip), vehicle: saline, higher T/C = longer survival”, the T/C was 125 % of control.
As for `N[C@H](C(=O)O)[C@@H]1CC(Cl)=NO1`, the survivor count (T/C endpoint: median survival time, dose: 4.0 mg/kg/injection, schedule: Q01DX013 (ip), vehicle: saline, higher T/C = longer survival) is on record as 8 of 8; the survivor count (T/C endpoint: median survival time, dose: 8.0 mg/kg/injection, schedule: Q01DX013 (ip), vehicle: saline, higher T/C = longer survival) is given as 8 of 8; the survivor count (T/C endpoint: median survival time, dose: 16.0 mg/kg/injection, schedule: Q01DX013 (ip), vehicle: saline, higher T/C = longer survival) is 7 of 8; the survivor count (T/C endpoint: median survival time, dose: 32.0 mg/kg/injection, schedule: Q01DX013 (ip), vehicle: saline, higher T/C = longer survival) is listed as 4 of 8.
Turning to `COc1ccc(C(=O)/C(Br)=C/C(=O)O)cc1`, the survivor count (T/C endpoint: mean tumor weight, dose: 20.0 mg/kg/injection, schedule: Q01DX011 (ip), vehicle: saline, higher T/C = larger tumour) is 5 of 8; the survivor count (T/C endpoint: median survival time, dose: 20.0 mg/kg/injection, schedule: Q01DX011 (ip), vehicle: saline, higher T/C = longer survival) is 5 of 8; the survivor count under setting [7] is on record as 6 of 8; the survivor count under setting [8] is reported as 0 of 8; the survivor count (T/C endpoint: median survival time, dose: 160.0 mg/kg/injection, schedule: Q01DX011 (ip), vehicle: saline, higher T/C = longer survival) is 0 of 8.

The values are drawn from PubChem BioAssay AID272 (DTP/NCI, 2004).
